Some of these results come from one statement about several compounds together. For some assays here: At least one compound was matched to its structure with a doubt left. Peptide text beside a SMILES is read from it. * marks the point of attachment. Cbz = O=C(OCc1ccccc1)*
Assays:
[1] = test system: cardiomyocytic cell line derived from human ventricular heart tissue; test: Small molecule compound screen of gigasome production in cardiomyocytic monocultures; conditions: 100 nM Entinostat; 1000-10000 nM Bafilomycin A1; 10000 nM KN-93; 1000 nM LY288672; 24 h;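 note: gigasomes shed into the culture medium were imaged by confocal microscopy and counted as round particles lacking nuclear signal, extrapolated to the whole well, fold change is relative to DMSO vehicle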
[2] = test system: neuronal cell line derived from human neuroblastoma; test: Small molecule compound screen of gigasome production in neuronal monocultures; conditions: 10,000 nM MiTMAB; 1000 nM Tripterin; 100-10,000 nM Bafilomycin A1; 1000 nM Trametinib; 1000 nM RSL3; 24 h
neuronal cells [3] = test: Gigasome-mediated extraction of stress granule-associated protein HuR (fixed plates, confocal); type: cell-based, human; conditions: 5 μM sodium arsenite, 0.2 μM MG-132, alone or combined; 24 h; fixed plates (FIG. 7C)
Protocol: For this paradigm, cells were treated with a low sodium arsenite concentration of 5 μM either alone or in combination with the proteasome inhibitor MG-132 at 0.2 μM. A vehicular control amount of DMSO was added to the media to comparatively study cargo signals within cells and gigasomes. Treatments were carried out in reduced serum-containing media for 24 hours to mimic a chronic exposure to arsenite. The presence of the stress-granule-related cargo within cells and in gigasomes was characterized and quantified by confocal microscopy analysis of 4% paraformaldehyde. Non-specific labeling was blocked by incubation with 5% normal goat serum in PBS in the presence of 0.1% Triton X-100, for 2 h at room temperature, followed by immunolabeling with an antibody against the RNA-binding protein HuR (see Table 12) and incubation with Alexa Fluor® 568 secondary antibodies. Phalloidin Alexa Fluor® 488 was used to mark the proximal plasma membrane. Nuclei were counterstained with DAPI.
Images were captured using a Zeiss LSM 900 confocal microscope and a 40× objective. […] The cytosolic cargo signal (integrated density) was measured and normalized to the number of nuclei counted in each field. […] The quantity or distribution of objects obtained from the particle analysis was obtained as described in Example 13a.

neuronal cells [4] = test: Gigasome-mediated extraction of APP-CTFs upon γ-secretase and proteasome inhibition (fixed plates, confocal); type: cell-based, human; conditions: 5 mM γ-secretase inhibitor, 0.1 mM MG-132, alone or combined; 24 h; fixed plates (FIG. 6B)
Protocol: Cells were treated with the γ-secretase inhibitor L-685,458 at 5 μM, either alone or in combination with the proteasome inhibitor MG-132 at 0.1 μM. A vehicular control amount of DMSO was added to the media to comparatively study cargo signals within cells and gigasomes. Treatments were carried out in reduced serum-containing media (3% FBS) for 24 hours. Disease-related cargo presence within cells and in gigasomes was characterized and quantified by confocal microscopy analysis of 4% paraformaldehyde fixed cells, following (immuno)fluorescent labeling of cytosolic, nuclear and cargo-specific protein markers. […]
A range of 5-8 images per well were taken from replicate experiments to capture a final total range of 150-200 cells. […] The cellular cargo fluorescence intensity in the red channel was quantified by subtracting the background signal from each image, using the ImageJ built-in “subtract background” function with a default rolling ball radius of 50 pixel. The cargo signal (integrated density) in the red channel was measured and normalized to the number of nuclei counted in each field. […]
For particle analysis, the cytosolic and F-actin/membrane signals were merged into single RGB image, converted to grayscale and then thresholded to create a cellular mask of objects in the field of view, as calculated by the “Li” autothreshold algorithm. […]

SMILES	gigasome production, fold compared to DMSO [1]	gigasome production, fold compared to DMSO [2] [fold]	gigasomes per 1000 cells (neuronal cells [3])	gigasomes per 1000 cells (neuronal cells [4])
CO/C1=C\C(C)=C\[C@@H](C)[C@@H](O)[C@@H](C)C/C(C)=C/C=C/[C@H](OC)[C@@H]([C@@H](C)[C@@H](O)[C@H](C)[C@@]2(O)C[C@@H](O)[C@H](C)[C@@H](C(C)C)O2)OC1=O [Bafilomycin A1, reference compound]	up to 2 fold	≥ 2		
CC(C)C[C@@H](C=O)NC(=O)[C@H](CC(C)C)NC(=O)[C@H](CC(C)C)NC(=O)OCc1ccccc1 [MG-132] (Cbz-Leu-Leu-Leu-aldehyde)			250-300 per 1000 cells	200-250 per 1000 cells
CC1=C(O)C(=O)C=C2C1=CC=C1[C@@]2(C)CC[C@@]2(C)[C@@H]3C[C@](C)(C(=O)O)CC[C@]3(C)CC[C@]12C [Tripterin, reference compound]		≥ 2		

From patent publication US20240400986A1, “MEMBRANE BOUND COMPOSITIONS AND METHODS RELATING TO SAME” (FLAGSHIP PIONEERING INNOVATIONS VII, LLC, priority 2021, published 2024)
